Experimental data reported in the supplement of paper PMC8728848.
The list shows a part of the results.

Experiments:
Test in all cases: glycan array binding signal (z-score within array); higher = stronger binding
Details in all cases: glycan notation: IUPAC condensed, linker removed
[1] = target: GalNAc(b1-4)GlcNAc(b1-2)Man
Outline: (§1)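 Negative Z-scores can be read as non-binding. The Z-score is calculated within each array and then averaged across arrays of one protein sequence at different concentrations or buffers and across linkers. Arrays, 3228 in all, were curated from the Consortium for Functional Glycomics database and kept only where the protein sequence was available.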

[2] = target: GalNAc(b1-4)GlcNAc(b1-2)Man(a1-3)[GalNAc(b1-4)GlcNAc(b1-2)Man(a1-6)]Man(b1-4)GlcNAc(b1-4)GlcNAc
Outline: as §1

[3] = target: GalNAc(b1-4)GlcNAc(b1-3)GalNAc(b1-4)GlcNAc
Outline: as §1

[4] = target: GalNAc(b1-4)GlcNAc6S
Outline: as §1

[5] = target: GalNAc(b1-6)GalNAc
Outline: as §1

[6] = target: GalNAc3S(b1-4)GlcNAc
Outline: as §1

[7] = target: GalNAc3S(b1-4)GlcNAc3S
Outline: as §1

[8] = target: GalNAc3S(b1-4)[Fuc(a1-3)]GlcNAc
Outline: as §1

[9] = target: GalNAc4S6S(b1-4)GlcNAc
Outline: as §1

[10] = target: GalNAc6S(b1-4)GlcNAc
Outline: as §1

[11] = target: Glc(a1-4)Glc
Outline: as §1

[12] = target: Glc(a1-4)Glc(a1-4)Glc(a1-4)Glc
Outline: as §1

[13] = target: Glc(a1-6)Glc(a1-6)Glc
Outline: as §1

[14] = target: Glc(a1-6)Glc(a1-6)Glc(a1-6)Glc
Outline: as §1

[15] = target: Glc(b1-4)Glc
Outline: as §1

[16] = target: Glc(b1-6)Glc
Outline: as §1

[17] = target: GlcA(b1-3)Gal
Outline: as §1

[18] = target: GlcA(b1-3)GlcNAc
Outline: as §1

[19] = target: GlcA(b1-6)Gal
Outline: as §1

[20] = target: GlcA3S(b1-3)Gal(b1-4)GlcNAc(b1-2)Man
Outline: as §1

[21] = target: GlcA3S(b1-3)Gal(b1-4)GlcNAc(b1-3)Gal(b1-4)Glc
Outline: as §1

[22] = target: GlcNAc(a1-3)Gal(b1-4)GlcNAc
Outline: as §1

[23] = target: GlcNAc(a1-4)Gal(b1-3)GlcNAc
Outline: as §1

[24] = target: GlcNAc(a1-4)Gal(b1-4)GalNAc
Outline: as §1

[25] = target: GlcNAc(a1-4)Gal(b1-4)GlcNAc
Outline: as §1

[26] = target: GlcNAc(a1-4)Gal(b1-4)GlcNAc(b1-3)Gal(b1-4)Glc
Outline: as §1

[27] = target: GlcNAc(a1-4)Gal(b1-4)GlcNAc(b1-3)Gal(b1-4)GlcNAc
Outline: as §1

[28] = target: GlcNAc(a1-4)Gal(b1-4)GlcNAc(b1-3)Gal(b1-4)GlcNAc(b1-3)Gal(b1-4)GlcNAc
Outline: as §1

[29] = target: GlcNAc(a1-4)Gal(b1-4)GlcNAc(b1-3)Gal(b1-4)[Fuc(a1-3)]GlcNAc(b1-3)Gal(b1-4)[Fuc(a1-3)]GlcNAc
Outline: as §1

[30] = target: GlcNAc(a1-6)Gal(b1-4)GlcNAc
Outline: as §1

[31] = target: GlcNAc(b1-2)Gal(b1-3)GalNAc
Outline: as §1

[32] = target: GlcNAc(b1-2)Man(a1-3)[GlcNAc(b1-2)Man(a1-6)]Man(b1-4)GlcNAc(b1-4)GlcNAc
Outline: as §1

[33] = target: GlcNAc(b1-2)Man(a1-3)[GlcNAc(b1-2)Man(a1-6)]Man(b1-4)GlcNAc(b1-4)[Fuc(a1-6)]GlcNAc
Outline: as §1

[34] = target: GlcNAc(b1-2)Man(a1-3)[GlcNAc(b1-4)][GlcNAc(b1-2)Man(a1-6)]Man(b1-4)GlcNAc(b1-4)GlcNAc
Outline: as §1

[35] = target: GlcNAc(b1-2)Man(a1-3)[GlcNAc(b1-4)][GlcNAc(b1-2)Man(a1-6)]Man(b1-4)GlcNAc(b1-4)[Fuc(a1-6)]GlcNAc
Outline: as §1

[36] = target: GlcNAc(b1-2)[GlcNAc(b1-4)]Man(a1-3)[GlcNAc(b1-2)Man(a1-6)]Man(b1-4)GlcNAc(b1-4)GlcNAc
Outline: as §1

[37] = target: GlcNAc(b1-2)[GlcNAc(b1-4)]Man(a1-3)[GlcNAc(b1-4)][GlcNAc(b1-2)Man(a1-6)]Man(b1-4)GlcNAc(b1-4)GlcNAc
Outline: as §1

B1: PX14343E-bfa-545-24-545 (Bacteroides fragilis) (protein)
chain: LDRYPQEELSDGSFWKTPDDANKVVSDLYGYLSTWDQDNDINSDNATMGIKWAAGNVSKGIYDPADQGWSGDYANVRQCNLILSKIDEIPDYPEADKTKALGQVYFFRAYIYFNLIRSFGDVPYIDKPLDLKDMEGITRMPRAEVYEKIMADFDKAIAALPTEWGASDYGRVTKGAAMAMKARAALYYGNWDTAATEAKNVMDLGLYELYDKDNTGKYAELFWEKADGCDEFILVTQFNYPDKTHYLMGWECFPTKGWGGMNPTQSLVDAFEDSEGAPISKSKIYDPTDPFKNRDPRLEVDILHDGEEMYGVTIKVAPLASSGSTGINQHNDATETGYYGQKWLDPSLDPLSDGWNMGKDWVHIRYAEVLLTYAEAKNELQGLDPEAFDAVNQVRRRVGMPELQNTDPSKPTYCATQDDLRQRIRNEWRVEFCLEGGKRMWDIRRWGIAKDVLNAPFEGLKYKIVDNPNDPDKKVDGGKMCILYQGDPIILSGSRYSDNNYLFPVPQSEIDLNPALTQNPGY
glycan array binding signal (z-score) [1]: -0.317
glycan array binding signal (z-score) [2]: 1.25
glycan array binding signal (z-score) [3]: -0.624
glycan array binding signal (z-score) [4]: -0.392
glycan array binding signal (z-score) [5]: -0.165
glycan array binding signal (z-score) [6]: -0.165
glycan array binding signal (z-score) [7]: -1.05
glycan array binding signal (z-score) [8]: -0.057
glycan array binding signal (z-score) [9]: -0.119
glycan array binding signal (z-score) [10]: -0.18
glycan array binding signal (z-score) [11]: -0.039
glycan array binding signal (z-score) [12]: 1.57
glycan array binding signal (z-score) [13]: -0.543
glycan array binding signal (z-score) [14]: -0.196
glycan array binding signal (z-score) [15]: 0.195
glycan array binding signal (z-score) [16]: -0.742
glycan array binding signal (z-score) [17]: -0.027
glycan array binding signal (z-score) [18]: -0.841
glycan array binding signal (z-score) [19]: -1.16
glycan array binding signal (z-score) [20]: -0.441
glycan array binding signal (z-score) [21]: 0.847
glycan array binding signal (z-score) [22]: -0.454
glycan array binding signal (z-score) [23]: -0.321
glycan array binding signal (z-score) [24]: 0.655
glycan array binding signal (z-score) [25]: -0.84
glycan array binding signal (z-score) [26]: -0.243
glycan array binding signal (z-score) [27]: 0.54
glycan array binding signal (z-score) [28]: -0.242
glycan array binding signal (z-score) [29]: 8.96
glycan array binding signal (z-score) [30]: -0.692
glycan array binding signal (z-score) [31]: -0.499
glycan array binding signal (z-score) [32]: -0.7
glycan array binding signal (z-score) [33]: -0.895
glycan array binding signal (z-score) [34]: -0.413
glycan array binding signal (z-score) [35]: -0.597
glycan array binding signal (z-score) [36]: 0.572
glycan array binding signal (z-score) [37]: -0.002
